Test results taken from patent EP4671261A1, “NOVEL PEPTIDE EXHIBITING SKIN CONDITION IMPROVEMENT ACTIVITY AND COSMETIC COMPOSITION CONTAINING SAME” (Daebong LS Co., Ltd., priority 2023, dated 2024).
At least one peptide structure holds a part that was inferred or is arguable (an end, a ring closure or a residue). Where a SMILES comes first, the peptide text is derived from it.

How the values were obtained:
HaCaT cells = experiment: Hyaluronic acid (HA) production, ELISA of culture supernatant; assay type: cell-based, human; conditions: for Hyaluronic acid production (%): 24 hours, serum-free DMEM, untreated group = 100
RAW264.7 cells = experiment: Inhibition of nitric oxide (NO) production, Griess reagent, LPS-stimulated macrophages; assay type: cell-based; conditions: for NO Production (%): LPS (1µg/ml), 24 hours, relative to LPS control = 100
NHDF cells = experiment: Procollagen Type I Peptide (PIP) production, EIA of culture supernatant; assay type: cell-based, Human; conditions: for Procollagen production (%): 24 hours, serum-free FBM, untreated group = 100

N[C@@H](Cc1ccc(O)cc1)C(=O)NCC(=O)N[C@@H](CO)C(=O)N[C@@H](CC(=O)O)C(=O)O [Example, YGSD (Tyr-Gly-Ser-Asp)] (H-YGSD-OH)
Hyaluronic acid production (%) (HaCaT cells; 50 µM): 105.1±5.45% | Hyaluronic acid production (%) (HaCaT cells; 100 µM): 123.64±0.81% | Hyaluronic acid production (%) (HaCaT cells; 200 µM): 132.68±22.43% | hyaluronic acid production (result in words) (HaCaT cells; 50-200 µM, HaCaT cells): increase in hyaluronic acid production | NO Production (%) (RAW264.7 cells; 50 µM): 101.55±2.59% | NO Production (%) (RAW264.7 cells; 100 µM): 91.42±4.58% | NO Production (%) (RAW264.7 cells; 200 µM): 86.51±2.39% | NO production (result in words) (RAW264.7 cells; 50-200 µM, LPS-stimulated RAW264.7 cells): inhibit NO production in a concentration-dependent manner | Procollagen production (%) (NHDF cells; 1 µM): 103.47±6.38% | Procollagen production (%) (NHDF cells; 10 µM): 110.79±5.44% | Procollagen production (%) (NHDF cells; 50 µM): 121.67±3.57% | Procollagen production (%) (NHDF cells; 100 µM): 132.38±1.24% | procollagen production (result in words) (NHDF cells; 1-100 µM, NHDF cells): increase in procollagen production
